Among the data in patent US20250346630A1, “Engineering Peptides Using Peptide Epitope Linker Evolution” (AGENCY FOR SCIENCE, TECHNOLOGY AND RESEARCH, priority 2022, published 2025) are binding values, retold here.

The chains behind the UniProt entries cited, without tags or fusion partners. Where a name states a change or a piece, a line headed by the entry shows the natural chain unless it says otherwise. A line that says so, or that is headed by a name, gives the form on record, which may keep a tag or linker.
UniProt P06730: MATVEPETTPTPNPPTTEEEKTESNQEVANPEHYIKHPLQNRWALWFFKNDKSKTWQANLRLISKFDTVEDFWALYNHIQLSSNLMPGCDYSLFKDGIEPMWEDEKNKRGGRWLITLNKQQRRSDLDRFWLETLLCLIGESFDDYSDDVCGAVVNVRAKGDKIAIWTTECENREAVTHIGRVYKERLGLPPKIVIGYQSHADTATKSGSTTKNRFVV
sortase-labelled N-terminally biotinylated eIF4E (P06730, form named): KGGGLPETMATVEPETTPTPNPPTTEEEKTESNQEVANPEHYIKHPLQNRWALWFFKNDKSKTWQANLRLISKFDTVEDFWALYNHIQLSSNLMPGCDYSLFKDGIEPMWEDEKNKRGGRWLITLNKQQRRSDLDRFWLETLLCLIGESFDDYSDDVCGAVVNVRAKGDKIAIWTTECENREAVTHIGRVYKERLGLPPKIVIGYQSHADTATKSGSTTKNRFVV

These are yes or no findings as the source states them, for the method shown. Some binding calls cover weakened binding; strength is not graded here.

Sequences and labels used below:
B1: negative control M4 (FLAG-tagged, expressed in HEK293 cells) (designed binder)
VH: MSEVQLVESGGGLVQPGGSLRLSSAISGFSISSTSIDWVRQAPGKGLEWVARISPSSGSTSYADSVKGRFTISADTSKNTVYLQMNSLRAEDTAVYYTGRVAKALNSSSPSFVVNTYSSFGFDYRGQGTLVTVSSGAA
notes: not shown: C-terminal 3x FLAG tag of the pCDNA3.1 vector

In one experiment the target is eIF4E of the NanoBit eIF4E:eIF4G^604-646 system (UniProt P06730). As to the kind of experiment: NanoBit competition in HEK293 cells: co-expressed VH domain against the pair SmBIT-eIF4E : eIF4G-LgBIT [CONT.) C].
Turning to B1, the binding result is “binds”.

For a further experiment, the target named is sortase-labelled N-terminally biotinylated eIF4E (UniProt P06730). Description: M13 linear 12mer phage selection on immobilised biotinylated eIF4E, NGS abundance heat map, 3 replicate columns [CONT.) D].
With HYSRTDLLAYRW, the binding entry is “binds”.

For the molecule VEGQNLEALVTD, the binding entry is listed as “binds”.

KLWSIPTNFLLP: the binding result is on record as “binds”.

Turning to YLMQTNQWQIAS, the binding result is “binds”.

Regarding TISYDRSTLFLF, the binding entry is “binds”.

On to AQSYTRMELLRL, for which the binding result is listed as “binds”.

Regarding DSAKERLAVSGT, the binding entry was “binds”.

As for LPRMMSDGEAGD, the binding result was “binds”.

As for SGIQQRMIVTWP, the binding result is “binds”.

A further experiment has the same target. Description: M13 C7C (disulphide constrained 7mer) phage selection on immobilised biotinylated eIF4E, NGS abundance heat map, 3 replicate columns [CONT.) C].
For CEMGYFGNC (two flanking Cys of the disulphide constrained C7C library), the binding entry was “binds”.

On to CETGYFSQC (two flanking Cys of the disulphide constrained C7C library), for which the binding result was “binds”.

Turning to CETGFYKTC (two flanking Cys of the disulphide constrained C7C library), the binding result was “binds”.

As to CETGFFLKC (two flanking Cys of the disulphide constrained C7C library), the binding result is reported as “binds”.

Regarding CETGFFLRC (two flanking Cys of the disulphide constrained C7C library), the binding result is on record as “binds”.

For the molecule CELGFYRLC (two flanking Cys of the disulphide constrained C7C library), the binding result is recorded as “binds”.

As for CIHSPTSLC (two flanking Cys of the disulphide constrained C7C library), the binding entry is listed as “binds”.
